Paper PMC5603515
No constants are given. Whether binding was seen depends on the method and setting. In cells and extracts the contact can be indirect. Some binding calls cover weakened binding; strength is not graded here.

By UniProt entry, the sequences of proteins in these tests, tags left out. Residues count along the entry.
UniProt Q64512: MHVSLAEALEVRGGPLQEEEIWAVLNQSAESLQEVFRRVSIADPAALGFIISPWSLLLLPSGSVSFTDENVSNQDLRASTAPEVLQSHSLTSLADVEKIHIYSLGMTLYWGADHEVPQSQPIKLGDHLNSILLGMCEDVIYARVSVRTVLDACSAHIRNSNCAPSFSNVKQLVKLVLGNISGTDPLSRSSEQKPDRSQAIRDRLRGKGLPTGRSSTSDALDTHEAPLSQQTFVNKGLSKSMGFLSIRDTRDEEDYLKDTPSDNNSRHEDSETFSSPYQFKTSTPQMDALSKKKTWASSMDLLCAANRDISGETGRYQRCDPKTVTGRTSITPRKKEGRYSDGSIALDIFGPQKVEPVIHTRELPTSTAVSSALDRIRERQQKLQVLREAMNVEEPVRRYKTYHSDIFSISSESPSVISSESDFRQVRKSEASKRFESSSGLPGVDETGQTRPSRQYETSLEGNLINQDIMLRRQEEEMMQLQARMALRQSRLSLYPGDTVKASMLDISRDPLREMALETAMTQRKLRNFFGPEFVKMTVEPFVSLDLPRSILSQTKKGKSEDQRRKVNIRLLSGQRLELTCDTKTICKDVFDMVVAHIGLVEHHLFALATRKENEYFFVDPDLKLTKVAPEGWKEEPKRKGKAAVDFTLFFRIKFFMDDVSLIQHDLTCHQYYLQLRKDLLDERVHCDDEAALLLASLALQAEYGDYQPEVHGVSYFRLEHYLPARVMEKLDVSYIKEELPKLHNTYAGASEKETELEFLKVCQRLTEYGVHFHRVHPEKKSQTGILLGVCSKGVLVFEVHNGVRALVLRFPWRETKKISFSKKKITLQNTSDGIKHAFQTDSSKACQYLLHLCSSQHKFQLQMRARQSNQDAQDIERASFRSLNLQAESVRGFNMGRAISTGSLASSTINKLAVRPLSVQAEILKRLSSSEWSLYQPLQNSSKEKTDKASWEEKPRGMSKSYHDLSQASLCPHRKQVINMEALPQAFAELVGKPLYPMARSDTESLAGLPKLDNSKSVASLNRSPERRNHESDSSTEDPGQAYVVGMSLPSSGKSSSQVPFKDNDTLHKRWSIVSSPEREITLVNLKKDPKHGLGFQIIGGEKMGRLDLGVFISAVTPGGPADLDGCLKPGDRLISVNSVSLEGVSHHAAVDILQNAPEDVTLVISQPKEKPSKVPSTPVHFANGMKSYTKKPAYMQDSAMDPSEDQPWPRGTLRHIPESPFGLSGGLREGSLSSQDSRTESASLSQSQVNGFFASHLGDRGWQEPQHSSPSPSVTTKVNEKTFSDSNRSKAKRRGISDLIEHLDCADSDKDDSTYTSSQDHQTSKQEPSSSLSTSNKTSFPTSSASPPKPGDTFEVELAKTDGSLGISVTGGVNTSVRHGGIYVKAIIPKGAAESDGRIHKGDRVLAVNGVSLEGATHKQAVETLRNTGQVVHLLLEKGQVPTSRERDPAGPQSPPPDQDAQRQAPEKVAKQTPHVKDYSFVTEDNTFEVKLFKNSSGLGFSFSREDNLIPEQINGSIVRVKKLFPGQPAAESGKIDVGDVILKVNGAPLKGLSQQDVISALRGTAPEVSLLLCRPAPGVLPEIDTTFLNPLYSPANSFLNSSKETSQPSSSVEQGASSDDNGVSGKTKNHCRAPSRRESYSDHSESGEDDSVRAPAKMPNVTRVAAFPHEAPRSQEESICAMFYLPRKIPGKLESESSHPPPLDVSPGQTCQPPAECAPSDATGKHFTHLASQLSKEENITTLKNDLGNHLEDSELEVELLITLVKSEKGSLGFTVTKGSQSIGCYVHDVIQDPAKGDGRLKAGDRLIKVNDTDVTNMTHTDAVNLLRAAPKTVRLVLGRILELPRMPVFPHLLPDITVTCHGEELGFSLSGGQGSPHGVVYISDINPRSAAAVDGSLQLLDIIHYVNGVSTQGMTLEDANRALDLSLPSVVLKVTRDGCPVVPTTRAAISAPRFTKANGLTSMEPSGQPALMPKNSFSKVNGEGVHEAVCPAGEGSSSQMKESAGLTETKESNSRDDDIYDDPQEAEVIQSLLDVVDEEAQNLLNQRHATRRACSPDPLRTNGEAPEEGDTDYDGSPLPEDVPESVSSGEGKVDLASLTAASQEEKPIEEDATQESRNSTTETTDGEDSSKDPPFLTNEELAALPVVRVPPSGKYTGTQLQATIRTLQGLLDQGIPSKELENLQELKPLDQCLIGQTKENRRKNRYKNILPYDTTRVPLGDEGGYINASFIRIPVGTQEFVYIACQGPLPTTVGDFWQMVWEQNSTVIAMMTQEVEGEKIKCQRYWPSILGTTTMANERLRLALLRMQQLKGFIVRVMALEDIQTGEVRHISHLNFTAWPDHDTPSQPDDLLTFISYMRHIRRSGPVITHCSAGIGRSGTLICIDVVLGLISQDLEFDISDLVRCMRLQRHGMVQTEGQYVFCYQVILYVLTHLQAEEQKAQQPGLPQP
UniProt P00520: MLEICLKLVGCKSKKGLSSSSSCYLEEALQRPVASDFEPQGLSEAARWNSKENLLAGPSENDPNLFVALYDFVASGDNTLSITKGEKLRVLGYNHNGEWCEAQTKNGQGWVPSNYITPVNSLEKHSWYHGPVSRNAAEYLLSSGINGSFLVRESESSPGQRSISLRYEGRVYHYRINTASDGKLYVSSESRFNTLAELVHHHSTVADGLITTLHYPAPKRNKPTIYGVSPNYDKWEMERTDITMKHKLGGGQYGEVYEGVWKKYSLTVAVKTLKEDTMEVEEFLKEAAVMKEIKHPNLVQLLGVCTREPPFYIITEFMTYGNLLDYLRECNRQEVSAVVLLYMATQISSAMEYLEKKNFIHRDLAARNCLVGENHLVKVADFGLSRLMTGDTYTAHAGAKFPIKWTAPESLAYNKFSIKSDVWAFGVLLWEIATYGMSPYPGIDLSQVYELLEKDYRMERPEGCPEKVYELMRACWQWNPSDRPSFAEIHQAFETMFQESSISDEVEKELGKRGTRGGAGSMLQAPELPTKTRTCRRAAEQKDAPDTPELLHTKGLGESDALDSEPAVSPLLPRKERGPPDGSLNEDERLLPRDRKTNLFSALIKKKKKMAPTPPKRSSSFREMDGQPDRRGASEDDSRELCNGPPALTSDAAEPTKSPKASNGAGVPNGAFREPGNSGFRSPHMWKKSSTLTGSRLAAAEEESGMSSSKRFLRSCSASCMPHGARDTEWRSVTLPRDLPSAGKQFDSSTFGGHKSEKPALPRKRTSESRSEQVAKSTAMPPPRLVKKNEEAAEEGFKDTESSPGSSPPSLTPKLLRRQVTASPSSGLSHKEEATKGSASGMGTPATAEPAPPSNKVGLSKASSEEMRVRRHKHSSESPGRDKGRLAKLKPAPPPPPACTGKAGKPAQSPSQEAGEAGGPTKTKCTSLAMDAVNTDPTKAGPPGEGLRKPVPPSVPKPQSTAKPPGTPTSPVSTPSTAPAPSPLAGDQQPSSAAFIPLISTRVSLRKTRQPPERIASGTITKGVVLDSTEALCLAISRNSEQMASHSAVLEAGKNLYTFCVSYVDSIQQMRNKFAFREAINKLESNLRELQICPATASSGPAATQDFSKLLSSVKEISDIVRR
UniProt O08529, residues 20-700: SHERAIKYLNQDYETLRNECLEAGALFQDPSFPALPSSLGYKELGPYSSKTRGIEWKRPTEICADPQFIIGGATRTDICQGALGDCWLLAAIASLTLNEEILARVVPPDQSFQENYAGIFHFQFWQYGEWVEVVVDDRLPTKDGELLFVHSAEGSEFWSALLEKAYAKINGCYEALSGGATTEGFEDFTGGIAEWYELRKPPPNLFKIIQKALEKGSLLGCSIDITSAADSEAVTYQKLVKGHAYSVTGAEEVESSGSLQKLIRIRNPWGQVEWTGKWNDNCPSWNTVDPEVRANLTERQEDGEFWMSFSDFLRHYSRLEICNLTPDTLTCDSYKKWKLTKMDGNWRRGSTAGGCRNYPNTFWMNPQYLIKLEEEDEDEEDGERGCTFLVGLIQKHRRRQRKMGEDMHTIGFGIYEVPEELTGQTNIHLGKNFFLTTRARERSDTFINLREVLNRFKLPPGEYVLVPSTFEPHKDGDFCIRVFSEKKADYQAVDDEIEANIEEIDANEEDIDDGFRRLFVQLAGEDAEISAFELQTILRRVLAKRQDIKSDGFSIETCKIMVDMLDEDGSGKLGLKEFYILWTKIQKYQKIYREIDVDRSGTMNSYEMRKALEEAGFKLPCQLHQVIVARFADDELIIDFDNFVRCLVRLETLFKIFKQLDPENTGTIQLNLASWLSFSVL
UniProt O35350: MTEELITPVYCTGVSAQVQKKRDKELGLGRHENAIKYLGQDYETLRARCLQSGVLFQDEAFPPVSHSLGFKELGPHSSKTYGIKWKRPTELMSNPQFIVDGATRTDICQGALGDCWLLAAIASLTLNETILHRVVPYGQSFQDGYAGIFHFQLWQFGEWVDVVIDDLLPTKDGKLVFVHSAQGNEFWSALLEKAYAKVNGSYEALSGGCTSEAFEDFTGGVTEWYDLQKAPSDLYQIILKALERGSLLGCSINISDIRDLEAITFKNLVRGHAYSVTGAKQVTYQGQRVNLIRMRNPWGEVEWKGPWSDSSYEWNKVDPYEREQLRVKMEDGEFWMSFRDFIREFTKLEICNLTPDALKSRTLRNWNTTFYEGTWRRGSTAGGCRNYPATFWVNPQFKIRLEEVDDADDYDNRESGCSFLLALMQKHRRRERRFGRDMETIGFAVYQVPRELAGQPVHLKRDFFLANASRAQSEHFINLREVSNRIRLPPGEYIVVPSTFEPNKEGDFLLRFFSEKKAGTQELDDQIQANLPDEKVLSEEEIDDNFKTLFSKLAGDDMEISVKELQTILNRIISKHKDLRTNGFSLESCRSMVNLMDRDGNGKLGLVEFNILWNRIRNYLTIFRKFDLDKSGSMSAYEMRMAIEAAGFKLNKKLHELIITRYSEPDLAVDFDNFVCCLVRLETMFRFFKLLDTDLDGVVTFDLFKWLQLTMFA

Experiments:
[1] = target: tyrosine phosphatase PTPN13 (mouse (endogenous in mouse brain)) (UniProt Q64512); experiment: co-IP; PTPN13 immunoprecipitated with anti-PTPN13 antibody from P2 homogenates of mouse brain under non-denaturing conditions (Pierce Classic IP Kit); rabbit IgG as negative control; with or without 10 uM calpain-2 C-terminal peptide for 1 h before co-IP
[2] = target: tyrosine phosphatase PTPN13 (mouse (endogenous in mouse brain)) (UniProt Q64512); experiment: co-IP; competition: synthetic calpain-2 C-terminal peptide (10 uM, 1 h) added to P2 homogenates of mouse brain before immunoprecipitation of PTPN13; calpain-2 in the precipitate read by blot; only the binder purified

| Molecule | binding [1] | binding [2] |
| --- | --- | --- |
| c-Abl (from UniProt P00520 1-1123) (enzyme) | binds | – |
| TIQLNLASWLSFSVL [calpain-2 C-terminal peptide] | – | binds |

Second part, the molecule after the results:

| binding [1] | binding [2] | Molecule |
| --- | --- | --- |
| binds | – | calpain-2 (from UniProt O08529 20-700) (enzyme) |
| no binding | – | calpain-1 (from UniProt O35350 1-713) (enzyme) |
